Measured values reported in publication PMC7042714.

The chains behind the UniProt entries cited, without tags or fusion partners.
UniProt Q9BVL2: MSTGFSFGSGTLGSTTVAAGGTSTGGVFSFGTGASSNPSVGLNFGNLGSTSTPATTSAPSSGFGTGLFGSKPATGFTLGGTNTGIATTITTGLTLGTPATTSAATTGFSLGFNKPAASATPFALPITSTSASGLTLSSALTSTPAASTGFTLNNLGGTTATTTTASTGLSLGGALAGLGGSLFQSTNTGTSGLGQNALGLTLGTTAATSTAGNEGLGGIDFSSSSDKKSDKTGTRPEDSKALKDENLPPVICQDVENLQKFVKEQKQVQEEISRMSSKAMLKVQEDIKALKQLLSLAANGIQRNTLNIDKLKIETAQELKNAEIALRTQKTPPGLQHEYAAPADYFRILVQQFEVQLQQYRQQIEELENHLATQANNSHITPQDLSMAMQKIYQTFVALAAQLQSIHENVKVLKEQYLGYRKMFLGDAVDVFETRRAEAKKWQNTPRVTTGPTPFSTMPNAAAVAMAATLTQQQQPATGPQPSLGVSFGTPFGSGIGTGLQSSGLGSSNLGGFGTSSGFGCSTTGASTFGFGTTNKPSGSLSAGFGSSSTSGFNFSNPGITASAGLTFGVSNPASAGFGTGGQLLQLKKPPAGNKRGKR
UniProt P12270: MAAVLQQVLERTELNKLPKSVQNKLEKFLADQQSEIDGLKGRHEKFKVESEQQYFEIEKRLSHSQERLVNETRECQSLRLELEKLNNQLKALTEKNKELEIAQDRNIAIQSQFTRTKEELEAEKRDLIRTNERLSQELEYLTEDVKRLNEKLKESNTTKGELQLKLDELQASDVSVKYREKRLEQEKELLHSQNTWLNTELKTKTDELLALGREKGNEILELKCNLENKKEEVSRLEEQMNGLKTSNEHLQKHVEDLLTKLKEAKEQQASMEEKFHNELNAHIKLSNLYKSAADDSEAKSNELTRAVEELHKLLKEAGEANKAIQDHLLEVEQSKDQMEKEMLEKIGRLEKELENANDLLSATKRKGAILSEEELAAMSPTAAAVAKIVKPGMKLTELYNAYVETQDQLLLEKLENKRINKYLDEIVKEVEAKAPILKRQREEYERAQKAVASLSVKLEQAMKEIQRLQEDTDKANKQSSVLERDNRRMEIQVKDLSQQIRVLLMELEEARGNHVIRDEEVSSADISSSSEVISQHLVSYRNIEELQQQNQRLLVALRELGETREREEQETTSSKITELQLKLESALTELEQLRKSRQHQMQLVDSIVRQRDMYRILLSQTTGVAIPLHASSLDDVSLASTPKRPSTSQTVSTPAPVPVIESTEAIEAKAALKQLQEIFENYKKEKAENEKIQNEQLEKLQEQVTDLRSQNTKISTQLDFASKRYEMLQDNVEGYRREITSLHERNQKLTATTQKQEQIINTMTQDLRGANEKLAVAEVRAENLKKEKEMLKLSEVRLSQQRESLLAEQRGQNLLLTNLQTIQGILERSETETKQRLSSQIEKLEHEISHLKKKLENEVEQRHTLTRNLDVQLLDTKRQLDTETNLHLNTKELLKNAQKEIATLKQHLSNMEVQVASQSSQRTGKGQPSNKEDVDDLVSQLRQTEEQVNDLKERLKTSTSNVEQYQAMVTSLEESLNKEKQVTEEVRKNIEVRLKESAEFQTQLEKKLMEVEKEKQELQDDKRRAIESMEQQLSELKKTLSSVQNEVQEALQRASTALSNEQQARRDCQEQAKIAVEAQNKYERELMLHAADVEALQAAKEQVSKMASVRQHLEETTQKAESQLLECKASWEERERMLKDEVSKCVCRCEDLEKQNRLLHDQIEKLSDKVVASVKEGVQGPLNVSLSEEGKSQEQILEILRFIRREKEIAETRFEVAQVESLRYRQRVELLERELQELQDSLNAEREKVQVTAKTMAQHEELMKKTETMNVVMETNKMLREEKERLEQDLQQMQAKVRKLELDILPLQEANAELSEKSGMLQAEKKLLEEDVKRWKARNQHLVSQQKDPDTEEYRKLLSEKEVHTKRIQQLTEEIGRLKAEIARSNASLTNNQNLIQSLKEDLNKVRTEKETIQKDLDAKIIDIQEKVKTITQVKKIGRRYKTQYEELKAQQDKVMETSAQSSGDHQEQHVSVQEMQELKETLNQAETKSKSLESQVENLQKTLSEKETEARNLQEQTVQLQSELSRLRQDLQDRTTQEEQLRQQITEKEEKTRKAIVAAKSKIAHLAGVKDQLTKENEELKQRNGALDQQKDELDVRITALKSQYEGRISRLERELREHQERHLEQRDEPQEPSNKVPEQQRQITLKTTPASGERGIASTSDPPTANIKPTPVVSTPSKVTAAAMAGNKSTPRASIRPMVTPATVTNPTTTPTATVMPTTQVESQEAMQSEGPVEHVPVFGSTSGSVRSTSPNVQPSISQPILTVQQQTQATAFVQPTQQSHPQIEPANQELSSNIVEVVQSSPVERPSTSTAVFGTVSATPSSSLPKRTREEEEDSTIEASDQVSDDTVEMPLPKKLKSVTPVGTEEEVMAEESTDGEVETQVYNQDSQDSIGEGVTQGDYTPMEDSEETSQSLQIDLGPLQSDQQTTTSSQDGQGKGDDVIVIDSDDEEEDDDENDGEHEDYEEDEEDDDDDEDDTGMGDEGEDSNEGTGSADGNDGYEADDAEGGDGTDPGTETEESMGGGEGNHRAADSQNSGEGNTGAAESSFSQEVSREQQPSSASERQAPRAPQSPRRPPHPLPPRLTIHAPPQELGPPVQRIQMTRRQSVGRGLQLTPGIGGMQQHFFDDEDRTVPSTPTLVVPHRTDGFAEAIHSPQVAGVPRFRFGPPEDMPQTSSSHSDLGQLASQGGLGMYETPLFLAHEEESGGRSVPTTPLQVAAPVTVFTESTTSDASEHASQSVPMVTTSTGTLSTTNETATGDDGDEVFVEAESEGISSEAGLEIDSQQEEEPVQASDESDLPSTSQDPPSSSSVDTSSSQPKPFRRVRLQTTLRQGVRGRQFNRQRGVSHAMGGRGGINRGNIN
UniProt Q92621: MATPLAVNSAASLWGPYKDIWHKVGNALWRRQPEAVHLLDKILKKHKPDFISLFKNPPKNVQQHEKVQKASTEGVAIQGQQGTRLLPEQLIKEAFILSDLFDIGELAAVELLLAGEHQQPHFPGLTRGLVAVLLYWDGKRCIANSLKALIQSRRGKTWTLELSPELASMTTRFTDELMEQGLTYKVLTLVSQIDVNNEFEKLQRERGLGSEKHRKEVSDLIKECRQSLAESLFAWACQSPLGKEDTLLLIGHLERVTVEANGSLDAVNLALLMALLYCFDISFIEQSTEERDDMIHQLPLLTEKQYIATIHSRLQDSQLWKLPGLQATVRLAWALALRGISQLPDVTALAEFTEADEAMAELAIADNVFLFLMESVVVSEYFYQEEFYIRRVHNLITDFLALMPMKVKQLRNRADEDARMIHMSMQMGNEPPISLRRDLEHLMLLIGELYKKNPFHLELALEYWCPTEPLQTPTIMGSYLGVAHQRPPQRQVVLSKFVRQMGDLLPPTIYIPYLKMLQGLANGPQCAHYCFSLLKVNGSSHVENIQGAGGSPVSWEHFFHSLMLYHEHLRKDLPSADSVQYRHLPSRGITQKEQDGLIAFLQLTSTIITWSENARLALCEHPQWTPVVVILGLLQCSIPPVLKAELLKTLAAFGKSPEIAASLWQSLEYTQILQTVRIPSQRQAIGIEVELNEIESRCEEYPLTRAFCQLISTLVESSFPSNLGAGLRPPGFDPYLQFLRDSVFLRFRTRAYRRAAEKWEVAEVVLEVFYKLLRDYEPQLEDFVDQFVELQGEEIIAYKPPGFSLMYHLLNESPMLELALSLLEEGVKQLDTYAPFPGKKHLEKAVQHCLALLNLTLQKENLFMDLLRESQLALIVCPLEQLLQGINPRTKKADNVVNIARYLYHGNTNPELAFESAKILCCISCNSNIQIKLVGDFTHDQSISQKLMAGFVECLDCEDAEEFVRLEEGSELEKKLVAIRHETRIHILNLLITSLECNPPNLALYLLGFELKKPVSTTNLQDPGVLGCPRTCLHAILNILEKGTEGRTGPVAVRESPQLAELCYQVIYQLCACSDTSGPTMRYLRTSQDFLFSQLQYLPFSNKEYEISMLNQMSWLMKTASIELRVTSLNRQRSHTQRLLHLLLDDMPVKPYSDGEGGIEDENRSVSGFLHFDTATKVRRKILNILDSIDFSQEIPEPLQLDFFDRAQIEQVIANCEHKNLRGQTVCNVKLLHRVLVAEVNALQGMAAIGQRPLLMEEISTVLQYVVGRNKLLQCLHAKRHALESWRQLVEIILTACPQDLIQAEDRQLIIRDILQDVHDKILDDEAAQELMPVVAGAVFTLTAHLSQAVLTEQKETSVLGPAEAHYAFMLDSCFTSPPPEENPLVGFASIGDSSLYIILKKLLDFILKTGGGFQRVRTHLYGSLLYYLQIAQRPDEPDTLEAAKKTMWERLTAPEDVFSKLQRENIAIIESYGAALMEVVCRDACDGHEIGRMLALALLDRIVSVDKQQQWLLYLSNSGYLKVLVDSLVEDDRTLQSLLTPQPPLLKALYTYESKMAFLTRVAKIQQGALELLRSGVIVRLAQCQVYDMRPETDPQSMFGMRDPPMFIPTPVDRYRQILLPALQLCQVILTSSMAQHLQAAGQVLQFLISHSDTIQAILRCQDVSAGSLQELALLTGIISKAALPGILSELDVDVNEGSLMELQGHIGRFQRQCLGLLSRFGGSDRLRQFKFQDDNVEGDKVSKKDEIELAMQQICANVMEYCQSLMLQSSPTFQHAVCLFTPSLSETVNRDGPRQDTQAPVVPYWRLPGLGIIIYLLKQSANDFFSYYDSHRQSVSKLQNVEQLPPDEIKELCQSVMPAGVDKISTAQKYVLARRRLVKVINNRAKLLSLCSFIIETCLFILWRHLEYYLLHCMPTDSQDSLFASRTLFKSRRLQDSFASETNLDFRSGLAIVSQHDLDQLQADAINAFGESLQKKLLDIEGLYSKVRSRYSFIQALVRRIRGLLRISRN

B1: NUP93 (protein, UniProt Q8N1F7 1-819)
chain: MDTEGFGELLQQAEQLAAETEGISELPHVERNLQEIQQAGERLRSRTLTRTSQETADVKASVLLGSRGLDISHISQRLESLSAATTFEPLEPVKDTDIQGFLKNEKDNALLSAIEESRKRTFGMAEEYHRESMLVEWEQVKQRILHTLLASGEDALDFTQESEPSYISDVGPPGRSSLDNIEMAYARQIYIYNEKIVNGHLQPNLVDLCASVAELDDKSISDMWTMVKQMTDVLLTPATDALKNRSSVEVRMEFVRQALAYLEQSYKNYTLVTVFGNLHQAQLGGVPGTYQLVRSFLNIKLPAPLPGLQDGEVEGHPVWALIYYCMRCGDLLAASQVVNRAQHQLGEFKTWFQEYMNSKDRRLSPATENKLRLHYRRALRNNTDPYKRAVYCIIGRCDVTDNQSEVADKTEDYLWLKLNQVCFDDDGTSSPQDRLTLSQFQKQLLEDYGESHFTVNQQPFLYFQVLFLTAQFEAAVAFLFRMERLRCHAVHVALVLFELKLLLKSSGQSAQLLSHEPGDPPCLRRLNFVRLLMLYTRKFESTDPREALQYFYFLRDEKDSQGENMFLRCVSELVIESREFDMILGKLENDGSRKPGVIDKFTSDTKPIINKVASVAENKGLFEEAAKLYDLAKNADKVLELMNKLLSPVVPQISAPQSNKERLKNMALSIAERYRAQGISANKFVDSTFYLLLDLITFFDEYHSGHIDRAFDIIERLKLVPLNQESVEERVAAFRNFSDEIRHNLSEVLLATMNILFTQFKRLKGTSPSSSSRPQRVIEDRDSQLRSQARTLITFAGMIPYRTSGDTNARLVQMEVLMN
B2: NUP50 (protein, UniProt Q9UKX7 1-468)
chain: MAKRNAEKELTDRNWDQEDEAEEVGTFSMASEEVLKNRAIKKAKRRNVGFESDTGGAFKGFKGLVVPSGGGRFSGFGSGAGGKPLEGLSNGNNITSAPPFASAKAAADPKVAFGSLAANGPTTLVDKVSNPKTNGDSQQPSSSGLASSKACVGNAYHKQLAALNCSVRDWIVKHVNTNPLCDLTPIFKDYEKYLANIEQQHGNSGRNSESESNKVAAETQSPSLFGSTKLQQESTFLFHGNKTEDTPDKKMEVASEKKTDPSSLGATSASFNFGKKVDSSVLGSLSSVPLTGFSFSPGNSSLFGKDTTQSKPVSSPFPTKPLEGQAEGDSGECKGGDEEENDEPPKVVVTEVKEEDAFYSKKCKLFYKKDNEFKEKGIGTLHLKPTANQKTQLLVRADTNLGNILLNVLIPPNMPCTRTGKNNVLIVCVPNPPIDEKNATMPVTMLIRVKTSEDADELHKILLEKKDA

molecular target: HA-Strep-tagged NUP58 (UniProt Q9BVL2); experiment: affinity purification with mass spectrometry; HA-Strep-NUP58 captured on StrepTactin Sepharose from lysate of HeLa Flp-In T-REx cells synchronized in interphase or mitosis; biotin eluate analysed by LC-MS/MS (DDA), spectral counts, three biological replicates; HA-Strep-GFP as control bait

Row | Molecule | binding
1 | TPR (from UniProt P12270 1-2363) | no binding
2 | NUP205 (from UniProt Q92621 1-2012) | binds
3 | B1 | binds
4 | B2 | no binding

No constants are given. Whether binding was seen depends on the method and setting. Binding seen in cells or lysates may run through a third protein. These calls come from enrichment with a bait or labelling near it, and not all partners need be listed. A no says only that the protein was not detected with the bait.
